PubChem BioAssay AID652054 (National Center for Advancing Translational Sciences (NCATS), 2013)
The whole screen tested about 360,000 compounds, of which about 9,100 (2.5%) were called active. Inconclusive means that the source gave no clear call. Such entries were picked first, then a sample of the others. Rule as the data show it: active = max response below about -50%; inconclusive = no clear call, values can overlap the other calls; inactive = above that.

Protein sequences, listed by entry. Tags and fused reporters are not part of them.
UniProt P35462, whole entry, looked up: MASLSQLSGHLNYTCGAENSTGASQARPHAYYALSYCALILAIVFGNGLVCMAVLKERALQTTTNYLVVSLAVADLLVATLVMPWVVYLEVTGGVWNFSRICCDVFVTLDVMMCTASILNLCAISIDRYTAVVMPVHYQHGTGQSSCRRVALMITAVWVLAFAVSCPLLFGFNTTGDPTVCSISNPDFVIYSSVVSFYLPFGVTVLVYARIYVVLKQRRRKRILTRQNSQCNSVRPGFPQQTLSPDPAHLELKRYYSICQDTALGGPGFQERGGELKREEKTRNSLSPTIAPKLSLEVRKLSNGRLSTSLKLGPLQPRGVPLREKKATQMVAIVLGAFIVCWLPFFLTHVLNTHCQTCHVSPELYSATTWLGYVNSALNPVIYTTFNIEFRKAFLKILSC

Biological target: D(3) dopamine receptor (Homo sapiens) (UniProt P35462)
Test: qHTS of D3 Dopamine Receptor Antagonist: qHTS
Details: D3R cells, DiscoveRx beta-arrestin luminescence, antagonist mode; stronger effect = lower value
Summary of the method: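 Cells plated overnight at 1500 cells/well, then exposed to library compounds with dopamine controls for 90 minutes at 37 degrees C. DiscoveRx reagent added for 30–60 minutes at room temperature; luminescence read, quantitative HTS format.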
% is scaled to controls: 0 for no effect and ±100 for the full control effect.

Compound | max response, negative = inhibition
CN1C[C@@H]2C(c3ccc(Cl)nc3)C3(c4ccc(C#N)cc4)CC2(C3)[C@H]1c1ccccc1 (stereo not given in full) | inconclusive: -36.7%
O=C(N/N=C/C(Br)=C/c1ccccc1)c1ccc([N+](=O)[O-])cc1 | inactive: -9.94%
CC1CCCCN1CCNC(=O)C1CC(=O)N(c2ccc(F)c(Cl)c2)C1 (stereo not given) | inconclusive: -41.8%
CCOC(=O)c1c(NC(=O)C2C3C=CC(CC3)C2C(=O)O)sc(C)c1CC (stereo not given) | inactive: -7.95%
O=C(Nc1cccc2ccccc12)C12CC3CC(C1)CC(n1cnc([N+](=O)[O-])n1)(C3)C2 | inconclusive: -35.5%
COc1cc2nc(COc3ccccc3[N+](=O)[O-])oc(=O)c2cc1OC | inconclusive: -39.8%
COCc1[nH]nc2c1C(c1c(F)cccc1Cl)C(C#N)=C(N)O2 (stereo not given) | inconclusive: -35.9%
CCc1cc(=O)oc2cc(OC(C)C(=O)NCC3CCC(C(=O)O)CC3)c(Cl)cc12 (stereo not given) | inconclusive: -36.4%
c1cc2c3c(cccc3c1)NC1(CCCCCC1)N2 | inconclusive: -34.7%
O=C(COC(=O)c1ccc(NS(=O)(=O)c2cccs2)cc1O)Nc1nc2ccccc2s1 | inconclusive: -35%
Fc1ccc(/C=N/NC(=S)Nc2cccnc2)cc1 | inconclusive: -30.7%
O=C(Nc1cccc([N+](=O)[O-])c1)C1CCN(C(=O)Cc2ccccc2)CC1 | inconclusive: -34.5%
O=C(NC1CCN(Cc2ccccc2)CC1)c1ccc(CS(=O)c2ccc(F)cc2)o1 (stereo not given) | inconclusive: -41.6%
Cc1ccc(Cl)c(OCCN2CCCC(C)C2)c1 (stereo not given) | active: -68.3%
CCOC(=O)C1(CCOC)CCN(Cc2ccc3nonc3c2)CC1 | inconclusive: -37.6%
CN(C)CCNC(=O)C(C(=O)c1ccccc1)n1ccccc1=O (stereo not given) | inconclusive: -32.8%
O=C(NCCCN1CCCC1)c1ccc(CSCc2cccc(Cl)c2)o1 | inconclusive: -33.8%
CN1CCN(CC(C)(C)NS(=O)(=O)c2ccc(Cl)cc2)CC1 | inconclusive: -32.9%
CCn1c(Cc2ccccc2)nnc1SCC(=O)Nc1ccc(OC)cc1 | inconclusive: -31.4%
COc1ccc(CN(C)CC2CCCN(CCc3ccc(F)cc3)C2)c(OC)c1OC (stereo not given) | inconclusive: -30.4%
COc1cc(CC(=O)OCC(=O)NCc2cccs2)cc(OC)c1OC | inconclusive: -35.5%
CCOC(=O)c1[nH]c2ccc(OC)cc2c1NC(=O)CCN1CCC(C)CC1 | inactive: 0%
Cc1ccc(CN2CCN(C/C=C/c3ccc(F)cc3)CC2CCO)o1 (stereo not given) | active: -92.9%
Cc1[nH]c2ccccc2c1C(=O)C(C)OC(=O)c1ccc([N+](=O)[O-])o1 (stereo not given) | inconclusive: -38.8%
O=C1C2C3C=CC(CO)(O3)C2C(=O)N1c1ccccc1-c1ccccc1 (stereo not given) | inconclusive: -36.5%
CC(=O)c1ccc(Nc2ccc(-c3ccccc3F)nn2)cc1 | inactive: 2.08%
COc1ccc(C(=O)C2CN(c3ccccc3)CC2c2ccc(Cl)cc2)cc1 (stereo not given) | inconclusive: -40.7%
CCc1c(C)nc2ncnn2c1N1CCCC(C(=O)NCc2cccs2)C1 (stereo not given) | inactive: 2.28%

Copied from above, 2 compounds:
Compound | max response, negative = inhibition
CN1CCN(CC(C)(C)NS(=O)(=O)c2ccc(Cl)cc2)CC1 | inconclusive: -32.9%
CCn1c(Cc2ccccc2)nnc1SCC(=O)Nc1ccc(OC)cc1 | inconclusive: -31.4%

Continuation:

Compound | max response, negative = inhibition
CCOC1=C2[C@H](c3ccc(CC)cc3)N(S(=O)(=O)c3ccc(C)cc3)C[C@H]2n2c(=O)n(-c3ccccc3)c(=O)n2C1 | inconclusive: -35.1%
Cc1ccc2c(c1)C(=O)C(=O)N2CCCOc1ccccc1C | inconclusive: -34.2%
CCc1cc2c(cc3c(=O)n(CC(=O)NCCCN4CCCCCC4)nc(CC)n32)s1 | inconclusive: -43.9%
CC1CCN(C(c2cccs2)c2nnnn2Cc2ccccc2)CC1 (stereo not given) | inactive: 5.6%
COc1ccc(CNC(=O)CN2CCC(C(=O)c3ccc(OC)cc3)CC2)cc1 | inconclusive: -43.1%
CCN(CC)C(=O)CSc1nnc(-c2ccc(F)cc2)n1N | inconclusive: -36.9%
Cc1ccc(N=Cc2c(O)n(-c3ccc4c(c3)OCO4)c(=O)c3ccccc23)cc1 | active: -59.4%
CCOc1ccc(CC(=O)NCC(=O)NCc2cc(=O)n(C)c(=O)n2C)cc1 | inactive: 3.08%
CC(N)c1csc(Nc2ccc(S(C)(=O)=O)cc2)n1 (stereo not given) | inactive: -0.815%
COc1ccc(NS(=O)(=O)c2cc(NC(=O)c3ccccn3)ccc2OC)cc1Br | active: -50.5%
CCn1ncc(CN2CCC(C(=O)Nc3cccc(-c4cccc(F)c4)c3)CC2)c1C | inconclusive: -43.7%
CCOc1cccc(/C(O)=C2/C(=O)C(=O)N(CCN3CCOCC3)C2c2cccnc2)c1 (stereo not given) | inconclusive: -30.7%
COc1ccccc1CNC(=O)CSC(=S)N1CCCC1 | inactive: -13.3%
COc1ccc(CN2CCN(C(=O)CC(C)C)CC2)cc1OC | inconclusive: -37.1%
CCOc1cc2[nH]c(=O)n(CCCN3CCN(c4ccc(OC)cc4)CC3)c(=O)c2cc1OCC | inconclusive: -41.8%
O=C(c1n[nH]c2c1CCC2)N1CCCC(Nc2cccc(F)c2)C1 (stereo not given) | inconclusive: -38.8%
CC1(Cc2cc(Cl)ccc2C(F)(F)F)C(=O)Nc2cc(F)ccc21 (stereo not given) | inconclusive: -35.6%
CCN1CCN(c2nc(N)c([N+](=O)[O-])c(Nc3ccc(C)cc3)n2)CC1 | inconclusive: -49.7%
O=C(CN1C(=O)c2ccccc2C1=O)NC1(C(=O)O)CCCC1 | inconclusive: -31.5%
COC(=O)c1ccc[n+](CCc2c[nH]c3ccccc23)c1 | inconclusive: -32.8%
O=C(Nc1cccc(-n2cnnn2)c1)c1ccco1 | inactive: -24.4%
OC(COCC1COc2ccccc2O1)CN1CCN(c2ccc(F)cc2)CC1 (stereo not given) | active: -58.5%
CC1CCN(Cc2c(C(=O)N/N=C/c3ccccc3O)nnn2-c2nonc2N)CC1 | inactive: 11.4%
COCCNc1nc(NCCN2CCNC2=O)c2sccc2n1 | inconclusive: -33.2%
CC1(C(=O)Nc2cccnc2)Cc2c(-c3ccc4c(c3)OCO4)ccnc2O1 (stereo not given) | inactive: 0%
CC(CCc1ccccc1)NCc1ccc(Cl)cc1Cl (stereo not given) | inconclusive: -34.6%
O=C(N1CCN(Cc2ccc3c(c2)OCO3)CC1)C12CC3CC(CC(C3)C1)C2 | active: -64.2%
